The values below come from patent publication US20240294641A1 (CHILDREN S MEDICAL CENTER, published 2024).

Sequences of proteins named here, by UniProt entry; tags and fusion partners are left off. Residues count along the entry.
UniProt Q15116, residues 25-170: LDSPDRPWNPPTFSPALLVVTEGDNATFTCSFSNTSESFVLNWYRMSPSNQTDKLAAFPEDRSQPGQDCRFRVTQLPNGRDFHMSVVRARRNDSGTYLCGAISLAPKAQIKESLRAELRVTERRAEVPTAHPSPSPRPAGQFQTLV

Substitutions are numbered along the chain they refer to. These are yes or no findings as the source states them, for the method shown. Some entries that bind do so weakly or less than the wild type. For some of these results: Tags and fused reporters may be left off the sequences shown.

To fix the notation:
T1: PD1 N-terminal loop-GST fusion protein (human)
T1 sequence: LDSPDRPWNP

B1: M2-1 (antibody, human IgG4, V domains shown)
VH: QVQLVESGGDVVQPGGSLRLSCSASGLVFRDYGMNWVRQAPGKGLEWVGLIWYDGTKKYYSDFVKGRFTISRDNSKNMLYLQMNNLRAEDTAIYYCARFLIGATRRGNAMDYWGQGTSVIVSS
VL: EVVLTQSPATLSLSPGERATLSCRASQSIDSDLAWSQQKTGQPPRLIIYDASNRATGIPARFSGSGSGTDFTLTISSLEPEDFAVYYCQQRSDWPLTFGGGTKVEIR
notes: Expressed as human IgG4/kappa; without His tag and Protein A purified for Biacore; also called 397-27-3
B2: M1-1 (antibody, V domains shown)
VH: QVQLVESGGDVVQPGGSLRLSCAASGVAFRDYGMHWVRQAPGKGLEWVAVIWYDGSKKYYGDSVKGRFTVSRDNSKNMLYLEMNGLKAEDTAMYYCARNDDYWGQGTLVTVSS
VL: EIVLTQSPATLSLSPGERATLSCRASQSVSNSLSWYQQNPGQSPRLIIYDTSKRATGIPARFSGSGSGTDFTLTINNLETEDFAVYYCHQRSDWPLTFGGGTKVEIK
notes: Expressed as human IgG4/kappa in 293F or Expi293 cells; retains the CDR H3 of 17D8; also called 319-9-8
B3: M1-5 (antibody, human IgG4, V domains shown)
VH: QVQLVESGGDVVQPGGSLRLSCTVSGAVFRDLGMEWVRQAPGKGLEWLAVIWYDGGRKHYADSVKGRFTISRDNSRNMLFLQMNGLRVDDTAMYYCTRSHSTDDYWGQGTLVTVSS
VL: EIVLTQSPATLSVSPGERATLSCRASQSISSDLAWFQQKPGQAPRLIIHGASKRATGIPARFSGSGSGTDFTLTISSLEPEDFAVYYCQQRDSWPLNFGGGTKVEIK
notes: Expressed as human IgG4/kappa; without His tag and Protein A purified for Biacore; also called 319-9-34
B4: M2-3 (antibody, V domains shown)
VH: QGHLVESGGDVVLPGGSLRLSCTESGVDLSDFGIHWVRQTPGKGLEWVALIWYDGSKKFYADSVKDRFTISRDNSKNMVYLEMISLRVEDTAMYFCARGIRRGPWFTYWGPGTLVTVST
VL: B3 VL with A9V, T10I, V13L, K39T, H49Y, G50D, K53N, D92S, S93N, N97T
notes: Expressed as human IgG4/kappa in 293F or Expi293 cells; also called 397-27-25
B5: M1-7 (antibody, V domains shown)
VH: QLQLVESGGDVVQPGGSLRLSCAASGVVFSDFGLEWVRQAPGKGLEWLAVIWYDGSRKHYADSVKGRFTISRDNSKNMLYLQMNSLRVEDTAMYYCARCHSKEDYWGQGTLVTVSS
VL: EIEVTQSPATLSLSPGERATLSCRASQSIDTDLAWFQQRPGQTPRLIIYDASKRATGIPARFSGGGSGTDFTLTISSLEPEDFAVYYCQQRTTWPLTFGGGTKVEIK
notes: Expressed as human IgG4/kappa in 293F or Expi293 cells; also called 319-9-75
B6: M2-2 (antibody, V domains shown)
VH: B1 VH with F29I, R30S, T56S, M78I, I93M, I120T
VL: B1 VL with T40P
notes: Expressed as human IgG4/kappa in 293F or Expi293 cells; also called 397-27-23
B7: M1-4 (antibody, V domains shown)
VH: QVQLVESGGDVVQPGGSLRLSCAVSGVTFGDFGFEWVRQAPGKGLEWVAVIWYDGSRKHYAESVRGRFTISRDNSRNMMYLEMTGLRVEDTAKYYCTRSHSHEDYWGQGTLVTVSS
VL: B3 VL with V13L, S31N, D32Y, P40S, G50D, S52F, T56A, A60T, S93N
notes: Expressed as human IgG4/kappa in 293F or Expi293 cells; also called 319-9-27
B8: M2-5 (antibody, V domains shown)
VH: QVQLVESGGDVVQPGGSLRLSCAASGVVFSDYGLYWVRQAPGKGLEWVALIWYDGSKKFYADSVKGRFSISRDNSKNMLYLQMNNLRADDSAIYYCSRGIRQGPWFAYWGQGTRVTVSP
VL: B1 VL with V2I, D30S, A34T, S36F, T40P, P43A, A84V, Q89L, R107K
notes: Expressed as human IgG4/kappa in 293F or Expi293 cells; also called 397-27-93
B9: M2-4 (antibody, V domains shown)
VH: QVQLVESGGDVVQPGGSLRLSCAASGVAFRNYGMHWVRQAPGKGLEWVAIIWYDGSNKYYADSVKGRFTISRDNSKNMLYLQMNSLRAEDTAMYYCARLSIGTTHYFDTDDYWGQGTSVTVSS
VL: EIVLTQSPATLSLSPGERATLSCRASQSVSSYLAWYQQKVGQAPRLIIFDASNRATGIPARFSGSGSGTDFTLTITSLDPEDFAVYYCQQRSAWPLTFGGGTKVEIR
notes: Expressed as human IgG4/kappa; 6xHis tag at the C-terminus of the Fc for ELISA
B10: M1-6 (antibody, V domains shown)
VH: B7 VH with P14S, T28V, G30S, F32Y, E62D, R65Q, S75F, M79L, E82Q
VL: EIVLTQSPATLSLSPGERATLSCGASQNIDNSLAWFQQKPGQAPRLIIYDASKRATGIPARFSGSGSGTDFTLTISTLEPEDFAVYYCQQRDHWPLNFGGGTKVEVK
notes: Expressed as human IgG4/kappa in 293F or Expi293 cells; also called 319-9-53
B11: M1-3 (antibody, V domains shown)
VH: QEWLVESGGDVVQPGGSLRLSCATSKVTFNDFGIHWVRQAPGKGLEWVAIIWYDGSRNHYADSVRGRFTLSRDNSKNMVHLHMSSLRTEDTAMYYCARGIHSNDDYWGQGTMVTVSS
VL: EIVLTQSPATLSLSPGERATLSCRTSQSVSSDLAWFQQKPGQAPRLFIFDASKRVNGIPARFSGSGSGTDFTLTISSLEPEDFAVYYCQQRTDWPLTFGGGSRVEIK
notes: Expressed as human IgG4/kappa in 293F or Expi293 cells; also called 319-9-17
B12: M1-2 (antibody, V domains shown)
VH: B5 VH with L2V, V28A, F32Y, L34M, M78I, V88A, E103D
VL: B5 VL with E3V, V4L, S7F, A25T, S28N, T31S, R39K, T43A, K53N, S76T
notes: Expressed as human IgG4/kappa in 293F or Expi293 cells; also called 319-9-15

The target in one experiment is PD1-Fc fusion protein (human) (UniProt Q15116). Nature of the experiment: ELISA, plate coated with PD1-Fc fusion (FIG. 5E). A general note: An ELISA detects its analyte on a solid surface through an enzyme-linked reagent.
B1: the binding result is given as “binds”.
Turning to B2, the binding result is “binds”.
The same measure, in the same setting: as for B3, the entry is “binds”.
Turning to B4, the binding entry was “binds”.
With B5, the binding entry is given as “binds”.

In another experiment the target is T1, PD1 N-terminal loop-GST fusion protein (human). Nature of the experiment: ELISA, plate coated with PD1 N-terminal loop-GST fusion (coating taken from paragraph 399 and paragraph 400; not printed on the sheet), OD405.
Regarding B6, the binding result is listed as “binds”.
In the case of B7, the binding result was “binds”.
As for B8, the binding entry is given as “binds”.
For B9, the binding result is recorded as “binds”.
Take B10: the binding result is reported as “binds”.
Regarding B11, the binding entry is “binds”.

The target is the same in another experiment. Nature of the experiment: ELISA, plate coated with PD1 N-terminal loop-GST fusion.
For the molecule B1, the binding entry is recorded as “binds”.
The same measure, in the same setting: with B6 the entry was “binds”.
With B2, the binding result is “binds”.
On to B3, for which the binding entry was “binds”.
On the same count and under the same terms, with B4 the entry was “binds”; with B7, “binds”; with B8, “binds”.
Regarding B9, the binding entry was “binds”.
On the same count and under the same terms, with B10 the entry was “binds”.
On to B11, for which the binding entry is listed as “binds”.

For another experiment the target is unchanged. Nature of the experiment: ELISA, plate coated with PD1 N-terminal loop-GST fusion, AP-anti-human kappa, OD405.
Take B1: the binding result is reported as “binds”.
With B2, the binding entry is listed as “binds”.
On the same count and under the same terms, as for B3, the entry is “binds”; as for B4, “binds”.

The next experiment deals with PD1-Fc fusion protein (human) (UniProt Q15116). The experiment is described as follows: ELISA, plate coated with PD1-Fc fusion, AP-anti-human kappa detection.
Consider B1, for which the binding result was “binds”.
B6: the binding result is given as “binds”.
For B2, the binding result is “binds”.
Still for that read-out and setting: with B3 the entry was “binds”; with B4, “binds”; with B7, “binds”.
Regarding B8, the binding entry is listed as “binds”.
On the same count and under the same terms, with B5 the entry was “binds”; with B12, “binds”; with B9, “binds”.
On the same count and under the same terms, with B10 the entry was “binds”.
For the molecule B11, the binding entry is “binds”.

The target is the same in a further experiment. The experiment is described as follows: ELISA, plate coated with PD1-Fc fusion (coating taken from paragraph 395; not printed on the sheet), OD405.
In the case of B6, the binding result is reported as “binds”.
Turning to B7, the binding result is “binds”.
In the case of B8, the binding entry is reported as “binds”.
As to B12, the binding result is “binds”.
The same measure, in the same setting: with B9 the entry was “binds”; with B10, “binds”; with B11, “binds”.

A further experiment has the same target. Nature of the experiment: ELISA, plate coated with PD1-Fc fusion, OD405.
In the case of B1, the binding entry is recorded as “binds”.
In the case of B2, the binding entry is recorded as “binds”.
Take B3: the binding entry is given as “binds”.
As to B4, the binding entry is recorded as “binds”.
Regarding B5, the binding entry is “binds”.
